The values that follow come from paper PMC7819943, “Rice protein-binding microarrays: a tool to detect cis-acting elements near promoter regions in rice”.

Sequences of proteins named here, by UniProt entry; tags and fusion partners are left off.
UniProt Q0JBA9, entry or part of it: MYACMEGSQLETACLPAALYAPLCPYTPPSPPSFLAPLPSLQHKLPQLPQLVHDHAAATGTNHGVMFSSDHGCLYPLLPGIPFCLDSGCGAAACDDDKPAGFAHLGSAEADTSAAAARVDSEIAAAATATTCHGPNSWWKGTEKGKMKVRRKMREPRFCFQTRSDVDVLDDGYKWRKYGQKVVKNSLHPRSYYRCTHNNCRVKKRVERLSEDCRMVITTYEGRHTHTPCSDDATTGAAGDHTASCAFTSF

Some of the results follow.

For this assay, the target named is OsWRKY34 (Oryza sativa, UniProt Q0JBA9 1-250). Nature of the assay: protein-binding microarray (RPBM); PBS, 2% BSA, 51.3 ng/ul salmon testes DNA, 50 uM zinc acetate, 200 nM TF, 25 C, 1 h; high values mean tight binding. The conditions noted are these: protein: recombinant; tags: N-terminal polyhistidine and DsRed monomer fusion (pET32a); label: CyDye5-dUTP incorporated in the synthesized complementary strand; 3' TTTTT single-stranded linker to array surface; dsDNA, one strand shown. In short, it runs like this: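 The binding signal is fluorescence intensity per array feature (arbitrary units). Readings came from an Axon 4000B scanner after a washed, 2% BSA-blocked, double-stranded custom Agilent array had been incubated for 1 h at 25 °C with 200 nM protein and 50 µM zinc acetate. The protein was a Ni–NTA-purified transcription factor fused N-terminally to polyhistidine and DsRed, expressed in E. coli BL21-CodonPlus.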
Consider “GAGGTAGCGGTGGCGGTGAGGGCGGGGAGAGGAAGGCAGCCGGAGTCACCTAGTGCAG”, for which the binding signal was 8040 fluorescence intensity (a.u.).
As for “TTTTGCAGAACACATCGCCCTTCTCTTTTTCCTTTTCTCCCGGAGTCACCTAGTGCAG”, the binding signal was 8290 fluorescence intensity (a.u.).
To “TAAACTTAGTCAAACTTGAAATAATTTAATTTTGACCAAACGGAGTCACCTAGTGCAG” belongs 9280 fluorescence intensity (a.u.); to “ATCTTACAAAAACTTCCATGACTTTTTTTGCTGTGTGTGTCGGAGTCACCTAGTGCAG”, 9440 fluorescence intensity (a.u.).
As for “CAGATGGTCTGGTGGTCGGCGGAGGTCCCGGCGCGCGCGTCGGAGTCACCTAGTGCAG”, the binding signal was 8360 fluorescence intensity (a.u.).
To “CCCAATCAACTTCTTTTCCTTCGCCCAAGCAAGTACCTCTCGGAGTCACCTAGTGCAG” belongs 8830 fluorescence intensity (a.u.); to “ACGGTGTAAAAATTAGCAACCTTCATTACCTTGCTTTTGTCGGAGTCACCTAGTGCAG”, 10600 fluorescence intensity (a.u.); to “AAACACATCACGTTGCTGCCCATACACAACACGTGCAAGACGGAGTCACCTAGTGCAG”, 8350 fluorescence intensity (a.u.).
To “TCTTTCTCTTTCCTCATTTATTCACTTGCCACATCATTTTCGGAGTCACCTAGTGCAG” belongs 8160 fluorescence intensity (a.u.); to “AGCAGCATCCCTGTCCTGCGTTCTTGTCATATCTGTTATTCGGAGTCACCTAGTGCAG”, 9790 fluorescence intensity (a.u.).
The value for “CATCCCAAAATATTTGACGTCGTTGACTTTTTTAAAAGTGCGGAGTCACCTAGTGCAG” was 18000 fluorescence intensity (a.u.); that for “GGGTTCTTGCTTATTTGGATCCGTTCTTCCGGGGAGCGAGCGGAGTCACCTAGTGCAG” was 8540 fluorescence intensity (a.u.).
As to “GACAATGCAATCTTACTCCTACTTGCTGGTTATGAGACATCGGAGTCACCTAGTGCAG”, the binding signal was 8790 fluorescence intensity (a.u.).
For the sequence “CTTTTCTTTTCTCTTTGCTAATTTTGGATTTTATTTTTATCGGAGTCACCTAGTGCAG”, the binding signal is 9900 fluorescence intensity (a.u.).
Regarding “AATTCCTGCGGGTCCCGATTCTTCCTATACAGGCCAAATCCGGAGTCACCTAGTGCAG”, the binding signal was 12700 fluorescence intensity (a.u.).
Turning to “CAGATTTCCCAGGCCGTCTTGTTTTCCGTCAACACGCCTACGGAGTCACCTAGTGCAG”, the binding signal was 9910 fluorescence intensity (a.u.).
To “GACGGGAAAGTCGACTTGCAATCCATCCATGCGGGAAGCTCGGAGTCACCTAGTGCAG” belongs 8860 fluorescence intensity (a.u.); to “GCACACTTCACCGCAACTCCGGCCGCCCGCCGCCGCCGCCCGGAGTCACCTAGTGCAG”, 11800 fluorescence intensity (a.u.); to “TCAATTGATTATTACTGCCGCTTACTGTCTCCTCTACTGCCGGAGTCACCTAGTGCAG”, 9350 fluorescence intensity (a.u.).
On to “CAAGATGTTTTGTTTGGCTTTTCTGTTTTTAACAAGTTTACGGAGTCACCTAGTGCAG”, for which the binding signal is 8620 fluorescence intensity (a.u.).
The value for “TTGTCATCCTCGCCACCTCATTCTTTCTTTCTTTCATCTCCGGAGTCACCTAGTGCAG” was 12900 fluorescence intensity (a.u.); that for “CTACGGTTTTTTTTCCACTTTTTAGGGTAGTCGGACTTTTCGGAGTCACCTAGTGCAG” was 9140 fluorescence intensity (a.u.).
“CATCTTTTCCACTTGCTAATGTTGTCGCAACGATTTCTCTCGGAGTCACCTAGTGCAG”: the binding signal was 11900 fluorescence intensity (a.u.).
On to “TTGACCAACGTTTAACCATTCGTTTCATTTAATTTTTTTTCGGAGTCACCTAGTGCAG”, for which the binding signal is 10800 fluorescence intensity (a.u.).
On to “GTTCGTACCTTACTGGAGTTAACTTTGTGCTTTAGGCTATCGGAGTCACCTAGTGCAG”, for which the binding signal is 9310 fluorescence intensity (a.u.).
To “GGGCTTGGGCGGTGGTTAACGAGTTGGAAATAAGTCTACACGGAGTCACCTAGTGCAG” belongs 12800 fluorescence intensity (a.u.).
The value for “AAACTTCCCCGCGTACGATGACGCCAATACACATACATATCGGAGTCACCTAGTGCAG” was 10700 fluorescence intensity (a.u.).
“TCCCGATTTTTCTTTTACCGCGTTGATGAATCGGATTCGTCGGAGTCACCTAGTGCAG”: the binding signal is 8100 fluorescence intensity (a.u.).
“GTCGACTGTCCGCCGCTAGCGCCATCCACGCCGGTGCGCCCGGAGTCACCTAGTGCAG”: the binding signal is 9890 fluorescence intensity (a.u.).
Turning to “GCGAGATACTACTATTTTGTGATGCTATGATACTTGCGTCCGGAGTCACCTAGTGCAG”, the binding signal is 8270 fluorescence intensity (a.u.).
For “ATGCTTATACCATTTTTTTTAAGAACTATGCACTTTGAGACGGAGTCACCTAGTGCAG”, the binding signal was 8090 fluorescence intensity (a.u.).
To “TGGAAAGGTTCTTCTTCTTCGGGGTTGTTTGCTGCTGCTTCGGAGTCACCTAGTGCAG” belongs 9160 fluorescence intensity (a.u.).
To “AGAACTTTGGTAGAGTAGGCCCTGTATTGATTGGATTCGACGGAGTCACCTAGTGCAG” belongs 8240 fluorescence intensity (a.u.); to “CCGTCTCCTCGCGAGTTCACCCGCCACCTGCGCCGGTCTCCGGAGTCACCTAGTGCAG”, 10500 fluorescence intensity (a.u.).
The value for “CAAAGTCCGACCCGTTCACACCATCACCATCACCATCACCCGGAGTCACCTAGTGCAG” was 8560 fluorescence intensity (a.u.); that for “TTGAACTAGTTGTGTGCATTTTTTTACTCTGTCCATTATCCGGAGTCACCTAGTGCAG” was 11000 fluorescence intensity (a.u.).
Turning to “AAGGTGGTGTTTGAGAGGGGAGGGACATATTTTAATCCATCGGAGTCACCTAGTGCAG”, the binding signal is 10600 fluorescence intensity (a.u.).
For the sequence “CGTGGGGCACTTTAAGTCAACGACATGTCTGCAAATCATCCGGAGTCACCTAGTGCAG”, the binding signal is 8390 fluorescence intensity (a.u.).
To “CCTCGTCCTCAACCGCCTCCGCCTCCGCCTCCGCGACCGACGGAGTCACCTAGTGCAG” belongs 13000 fluorescence intensity (a.u.).
On to “CTCAACAAACCTTCCACATTGTTACCGTTTACAGATTTTCCGGAGTCACCTAGTGCAG”, for which the binding signal is 8600 fluorescence intensity (a.u.).
On to “TTGACCCGGCGCGCGGCCCACGGAGCTCCGGCCTTTATTACGGAGTCACCTAGTGCAG”, for which the binding signal is 10200 fluorescence intensity (a.u.).
As to “TACTCACATGTCCATCCTACATCCCAGGTTCTTCTTTGAGCGGAGTCACCTAGTGCAG”, the binding signal is 11700 fluorescence intensity (a.u.).
Turning to “GTTTGGTCGCCTTTATCAAAAGACACACACGCTGCCTCTCCGGAGTCACCTAGTGCAG”, the binding signal was 8030 fluorescence intensity (a.u.).
With “CTTAACCTCCTTTATTTGGAAACATGTACCTTCGTTTTCTCGGAGTCACCTAGTGCAG”, the binding signal was 8440 fluorescence intensity (a.u.).
The value for “GATGACATCCGCTCGGCTTTCTACATCCATCGTTCCGACACGGAGTCACCTAGTGCAG” was 8080 fluorescence intensity (a.u.); that for “AGTTTTTTTTTTCTTCACTGTCGACCATGCATGCGTTGATCGGAGTCACCTAGTGCAG” was 9750 fluorescence intensity (a.u.).
The value for “AAATTCCACGTGCCACATATTTCGTTCATTTGAGTTTATTCGGAGTCACCTAGTGCAG” was 12000 fluorescence intensity (a.u.).
Consider “TTTTATAAATTCGAGCGTGTGCGGGTTTCGTTTTCTCACTCGGAGTCACCTAGTGCAG”, for which the binding signal was 9840 fluorescence intensity (a.u.).
Regarding “TCTTTTCTCATAAAGATAATGATTTTACCTCAGTTTCCGTCGGAGTCACCTAGTGCAG”, the binding signal was 9380 fluorescence intensity (a.u.).
Consider “AAACTCATTATCTCACATACAAGTCAAACATGGCTGTAATCGGAGTCACCTAGTGCAG”, for which the binding signal was 9490 fluorescence intensity (a.u.).
Take “GAAACATACTTCCATTCCATGGAGATTACAGGCCTGAATACGGAGTCACCTAGTGCAG”: the binding signal is 8230 fluorescence intensity (a.u.).
On to “TGTTATATGAGTATGTTTTCGCCGGGTGTTTTATGAGTATCGGAGTCACCTAGTGCAG”, for which the binding signal is 12000 fluorescence intensity (a.u.).
The value for “CTTGGATTAAGGCGATACCTCTTTTTCTAATTTTTGCACTCGGAGTCACCTAGTGCAG” was 9470 fluorescence intensity (a.u.).
As to “GCACACTCTGGCCGGTCGTCAGTTCAACCACCCGCCAACTCGGAGTCACCTAGTGCAG”, the binding signal is 8040 fluorescence intensity (a.u.).
